Record: PubChem BioAssay AID652272 (Drosophila RNAi Screening Center, 2013)

- Screen: 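Genes whose knock-down decreases or increases Hedgehog reporter output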 (primary screen)
- Cell system: Drosophila clone 8 (Cl8) cells
- Reagent: long dsRNA against Drosophila genes
- Measurement: 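Plate reader light from a firefly reporter under a ptc promoter fragment that responds to Hedgehog, with Renilla light as transfection reference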
- Direction: firefly Hh reporter signal: higher = more ptc reporter light; Renilla reference signal: higher = more Renilla control light
- Rule for the call: 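Hit when the z-score averaged over two replicates is under -2 or over +3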
- Meaning of the calls: active = hit: reporter lowered or raised; inactive = not a hit
The screen tested about 21,000 reagents; shown is a random part of those with a known target gene and a result. In the full data, 503 (2.4%) were called active. 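Raw plate light values, not normalised; calls rest on replicate z-scores that were not deposited; hits include reporter decreases as well as increases.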 The numbers tell different reagents against one gene apart. No sequences are given here. Not stated in the record: the amount of reagent, the time to read-out.

gene	dsRNA no.	firefly Hh reporter signal, replicate 1	firefly Hh reporter signal, replicate 2	firefly Hh reporter signal, replicate 3	Renilla reference signal, replicate 1	Renilla reference signal, replicate 2	outcome
Pgm2b	1	1.22e5	85029		5446	3126	inactive
Diedel	1	1.56e5	1.01e5		5249	2784	inactive
CysRS	1	1.59e5	7.54e5	1.20e5	5996	42374	inactive
CG14207	1	1.23e5	1.19e5		2736	3364	inactive
CG14207	2	80843	2.39e5		3096	10553	inactive
rpk	1	1.57e5	1.31e5		5431	3612	inactive
wb	1	19539	47717		957	3346	active
wb	2	99248	40860		2627	4192	inactive
APC10	1	1.04e5	76017		2658	5815	inactive
CG31624	1	1.38e5	1.22e5		4885	4039	inactive
FRG1	1	1.23e5	1.11e5		3958	3353	inactive
mRpS35	1	52280	33136		1522	2792	inactive
CR42745 (retired record)	1	57478	1.93e5		14704	3681	inactive
CG1239	1	1.17e5	95489		4465	3652	inactive
CG8329	1	1.56e5	98604		6002	4225	inactive
Prp19	1	73475	57300		2387	4617	inactive
ND-B17	1	1.12e5	63937		3141	5944	inactive
CG42717	1	2.22e5			4866		inactive
Wdr82	1	2.15e5	7.27e5	1.32e5	8076	42995	inactive
CG10680	1	77858	49984		2085	5193	inactive
CG32202	1	1.68e5			3168	3840	active
Syx5	1	63852	59792		3002	2364	inactive
Vha100-2	1	1.04e5	1.14e5		3895	4151	inactive

3 of these entries, reformatted:
| gene | dsRNA no. | firefly Hh reporter signal, replicate 1 | firefly Hh reporter signal, replicate 2 | firefly Hh reporter signal, replicate 3 | Renilla reference signal, replicate 1 | Renilla reference signal, replicate 2 | outcome |
| --- | --- | --- | --- | --- | --- | --- | --- |
| mRpS35 | 1 | 52280 | 33136 | – | 1522 | 2792 | inactive |
| CR42745 (retired record) | 1 | 57478 | 1.93e5 | – | 14704 | 3681 | inactive |
| CG1239 | 1 | 1.17e5 | 95489 | – | 4465 | 3652 | inactive |
